Values of other authors in patent US7419990B2, “Piperidine derivatives as melanocortin-4 receptor agonists” (Merck & Co., Inc., priority 2003, dated 2008).
Some results were stated once for a whole list of compounds, not compound by compound. Some ranges recur; such a range may be that of the whole group of compounds.

Conditions: drug compared to placebo

SMILES: CCCCCCCCCCC[C@@H](C[C@@H]1OC(=O)[C@H]1CCCCCC)OC(=O)[C@H](CC(C)C)NC=O [orlistat]
- weight loss, of body weight: 5%-10%
